± gives the standard deviation. The list shows a part of the results, in another mix than the full data. Many of these values have a large error. The list shows a part of the results.
Legend:
[1] = test system: MILI (PIWIL2) piRISC loaded with L1MC piRNA (26 nt); assay: pre-steady-state target cleavage rate (min^-1); higher = faster piRNA-guided slicing of the target; settings: guide: L1MC piRNA 5'p-UAACUAAAUACUAUGCAAGCUGUAGG
Outline: (§1)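 The pre-steady-state cleavage rate came from a burst-and-steady-state fit to pooled data from three Cleave-'n-Seq trials, in which uncleaved targets were sequenced and normalised to depth and to weakly complementary targets. Each reaction held 0.1 nM transcribed, DNA-blocked target RNA library and 1 nM active affinity-purified piRISC carrying one synthetic guide, with or without 500 nM GTSF1 partner protein, in HEPES–potassium acetate buffer at 33 °C for 0–8 or 0–960 min. k3 was capped at 0.0001 min^-1.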

[2] = test system: MIWI (PIWIL1) piRISC loaded with L1MC piRNA (30 nt); assay: as above; settings: guide: L1MC piRNA 5'p-UAACUAAAUACUAUGCAAGCUGUAGGUCCU
Outline: as §1

[3] = test system: EfPiwi piRISC loaded with L1MC piRNA (26 nt); assay: pre-steady-state target cleavage rate (min^-1); guide: L1MC piRNA 5'p-UAACUAAAUACUAUGCAAGCUGUAGG; MIWI and MILI are mouse PIWI proteins and EfPiwi is from a freshwater sponge; tags in brackets are library labels; higher = faster piRNA-guided slicing of the target
Outline: as §1

[4] = auxiliary factor: 500 nM mouse GTSF1
[5] = auxiliary factor: none (no GTSF1)
[6] = auxiliary factor: 500 nM Ephydatia muelleri Gtsf1

Row | Sequence | pre-steady-state target cleavage rate [1, 4] | pre-steady-state target cleavage rate [2, 5] | pre-steady-state target cleavage rate [3, 6] | pre-steady-state target cleavage rate [1, 5] | pre-steady-state target cleavage rate [2, 4] | pre-steady-state target cleavage rate ([3]; auxiliary factor: none (no Gtsf1))
1 | UCCUGGAACAGCAACCAUAGUAUUUACAAA | 0.00254 ± 0.0048 | 0.000852 ± 0.0077 | 0.000208 ± 0.022 | – | – | –
2 | UCCUGGAUGUCGAACGUUAGUAUUUAUGUUA | – | – | – | 0.000163 ± 0.032 | 0.0002 ± 0.028 | < 0.0001
3 | UCCUGGAUGUCGAAGCAUAGUAAAAAGUUA | – | 0.000222 ± 0.019 | 0.000674 ± 0.017 | 0.000161 ± 0.024 | – | –
4 | UCCUGGAUGUCGAUGCAUACAUUUUAGUUA | – | 0.000212 ± 0.025 | 0.00011 ± 0.029 | 0.000342 ± 0.017 | – | –
5 | UCCUGGAUGUCGAAGCAAAGUAAUUAGUUA | – | 0.000499 ± 0.014 | 0.000737 ± 0.0097 | 0.000262 ± 0.016 | – | –
6 | UCCUGGAUGACGAUGCAUAGUAUUUAGUAA | – | 0.000937 ± 0.0062 | 0.00247 ± 0.0032 | 0.00256 ± 0.0039 | – | –
7 | UCCUGGAUCAGCUUGCAUUCAAUUUACAAA | – | 0.000714 ± 0.0067 | 0.000383 ± 0.0082 | 0.000271 ± 0.019 | – | –
8 | UCCUGGAUCAGCUUGCAUAGUAAAUAGUAA | – | 0.00271 ± 0.0031 | 0.0018 ± 0.0021 | 0.00261 ± 0.0027 | – | –
9 | UCCUGGAUCAGCUUGCAUAGUUAUUAGAAA | – | 0.00131 ± 0.0049 | 0.00282 ± 0.0036 | 0.000763 ± 0.0079 | – | –
10 | UCCUGGAUGUCGAAGCAUAGUAUAUUGUUA | – | 0.000429 ± 0.012 | 0.000204 ± 0.016 | 0.000992 ± 0.0059 | – | –
11 | UCCUGGAACAGCUUCCAUAGUAUUUAGAAA | – | 0.000867 ± 0.0082 | 0.00411 ± 0.0022 | 0.000462 ± 0.014 | – | –
12 | UCCUGGAUGUCCUUGCAUAGUAAAAUCAAA [g9:g19:cont:t1A] | – | 0.000879 ± 0.0077 | 0.000705 ± 0.0069 | 0.000794 ± 0.0059 | – | –
13 | UCCUCCUACAGCUUCCAUAGAAUUUAGUUA | – | 0.00131 ± 0.0034 | 0.00186 ± 0.0019 | 0.000691 ± 0.0074 | – | –
14 | UCCUGGAACACGAUGCAUAGUAUUUUCAAA | – | 0.00101 ± 0.0099 | 0.000607 ± 0.0058 | 0.000939 ± 0.0061 | – | –
15 | UCCUGGAACACCUUGCAUAGUAUUUUCAAA | – | 0.00119 ± 0.0053 | 0.00179 ± 0.0036 | 0.000836 ± 0.007 | – | –
16 | UCCUGGAUGUCGAACCAUAGAUAUUAGUUA | – | 0.000195 ± 0.04 | < 0.0001 | 0.0002 ± 0.021 | – | –
17 | UCCUGGAUGUCGAAGCAUAGUAUUAAGUUA | – | – | 0.000311 ± 0.0096 | 0.00179 ± 0.0034 | 0.00119 ± 0.0098 | –
18 | UCCUCCUACAGCUUGCAUAGGUAUUUAGUUA | – | 0.00109 ± 0.0072 | 0.0036 ± 0.0026 | 0.00373 ± 0.0024 | – | –
19 | UCCUGGAUGUCGAUGCAUACGUAUUUAGUUA | – | 0.000552 ± 0.015 | 0.000411 ± 0.0092 | 0.000541 ± 0.011 | – | –
20 | UCCUGGAUGUCGAUGCAUAGUAUUUGUUA | – | 0.000672 ± 0.0099 | 0.000503 ± 0.0096 | 0.000245 ± 0.021 | – | –
21 | UCCUGCUACAGCUUGCUAAGUAUUUUCAAA | – | 0.000648 ± 0.01 | 0.00125 ± 0.0064 | 0.000646 ± 0.0085 | – | –
22 | UCCUGGAACAGCUUGGUUAGUAUUUAGAAA | – | 0.00282 ± 0.0045 | 0.00161 ± 0.0027 | 0.00161 ± 0.0049 | – | –
23 | UCCUGGAUGUCGAAGCUUAGUAUAUAGUUA | – | 0.000205 ± 0.028 | 0.0002 ± 0.016 | 0.000139 ± 0.028 | – | –

Full records as entered above. Values in the order: pre-steady-state target cleavage rate [1, 4]	pre-steady-state target cleavage rate [2, 5]	pre-steady-state target cleavage rate [3, 6]	pre-steady-state target cleavage rate [1, 5]	pre-steady-state target cleavage rate [2, 4]	pre-steady-state target cleavage rate ([3]; auxiliary factor: none (no Gtsf1))
UCCUGGAUCAGCUUGCAUAGUAAAUAGUAA is listed as –	0.00271 ± 0.0031	0.0018 ± 0.0021	0.00261 ± 0.0027	–	–
UCCUGGAUGUCGAAGCAUAGUAUUAAGUUA is listed as –	–	0.000311 ± 0.0096	0.00179 ± 0.0034	0.00119 ± 0.0098	–

(further entries)

Row | Sequence | pre-steady-state target cleavage rate [1, 4] | pre-steady-state target cleavage rate [2, 5] | pre-steady-state target cleavage rate [3, 6] | pre-steady-state target cleavage rate [1, 5] | pre-steady-state target cleavage rate [2, 4] | pre-steady-state target cleavage rate ([3]; auxiliary factor: none (no Gtsf1))
24 | UCCUGGAUGAGCUUGCAUUCUAUUUACAAA | – | 0.000261 ± 0.015 | 0.000385 ± 0.0086 | 0.00053 ± 0.014 | – | –
25 | UCCUGGUACAGCUUGCAUACAUUUUAGUAA | – | 0.000273 ± 0.014 | 0.000215 ± 0.027 | 0.00208 ± 0.0056 | – | –
26 | UCCUCCUACAGCUUCGUUAGUAUUUAGAAA | – | 0.000269 ± 0.0097 | 0.000259 ± 0.0097 | 0.00038 ± 0.014 | – | –
27 | UCCUGGAUGUCGAUGCAUAGUAUUUACAUA | – | 0.000467 ± 0.013 | 0.00178 ± 0.0045 | 0.000816 ± 0.0077 | – | –
28 | UCCUGGUACAGGAUGCAUAGUAUUUACAAA | – | 0.000563 ± 0.011 | 0.000937 ± 0.0053 | 0.000899 ± 0.0053 | – | –
29 | UCCUGGUACAGCUACCAUAGUAUUUAGAAA | – | 0.000776 ± 0.011 | 0.000915 ± 0.0058 | 0.00124 ± 0.0056 | – | –
30 | UCCUGGAUGUGCAUGCAUAGAAUUUAGUUA | – | 0.00139 ± 0.0058 | 0.00147 ± 0.0042 | 0.00234 ± 0.0035 | – | –
31 | UCCUGGAUGAGCUUGCAUUCAAUUUAGAAA | – | 0.000186 ± 0.017 | 0.000281 ± 0.012 | 0.000307 ± 0.019 | – | –
32 | UCCUGGAUGUCCUUGCAUCAGUAUUUAGUUA | – | 0.000434 ± 0.019 | 0.0012 ± 0.0066 | 0.000777 ± 0.0076 | – | –
33 | UCCUGGAUGUCGAAGCAUACAAUUUAGUUA | – | 0.000597 ± 0.0097 | 0.000173 ± 0.015 | 0.000509 ± 0.0083 | – | –
34 | UCCUGGAUGUCGAUGCAUAGUAUUUAGAUUA | – | 0.000709 ± 0.011 | 0.00188 ± 0.0025 | 0.000999 ± 0.0056 | – | –
35 | UCCUGGAUGAGCUUCCAUAGAAUUUAGUUA | – | 0.000222 ± 0.011 | 0.000307 ± 0.016 | 0.000276 ± 0.019 | – | –
36 | UCCUGGAACAGCUUGCAUACAUAAAUCAAA [g12:g23:cont:t1A] | – | 0.000315 ± 0.012 | 0.000434 ± 0.0084 | 0.000618 ± 0.0085 | – | –
37 | UCCUGGAUGUCGAAGCUUAGUAUUAAGUUA | – | 0.000553 ± 0.0089 | 0.000348 ± 0.015 | 0.000365 ± 0.014 | – | –
38 | UCCUGCUACAGCUUGCAAUCUAUUUAGUAA | – | 0.00184 ± 0.0038 | 0.000776 ± 0.0062 | 0.000902 ± 0.0042 | – | –
39 | UCCUGGAUCAGCUUCCAUAGUAUAUAGUUA | – | 0.000709 ± 0.01 | 0.000467 ± 0.0073 | 0.000226 ± 0.029 | – | –
40 | UCCUGGAUGUCGAUGCAUAGUAUAAUGUUA | – | 0.000605 ± 0.013 | 0.000274 ± 0.0091 | 0.0022 ± 0.0036 | – | –
41 | UCCUGCUACAGCUUGCUAUGUAUUUAGUAA | – | 0.00154 ± 0.0045 | 0.000869 ± 0.0053 | 0.00128 ± 0.0045 | – | –
42 | UCCUGGAUGUCGAACCAUAGUAUUUAGUUC [g2:g15:cont:t1C] | 0.00224 ± 0.0046 | – | < 0.0001 | – | 0.000159 ± 0.024 | –
43 | UCCUGGAUGUCGAACGUAUCUAUAUUGUUA | – | 0.000255 ± 0.017 | 0.000373 ± 0.01 | < 0.0001 | – | –
44 | UCCUGGAUGUCGAACCAUAGUAAUAAGUUA | – | 0.000336 ± 0.012 | 0.000308 ± 0.02 | 0.000235 ± 0.016 | – | –
45 | UCCUCCUACAGCUUGCUUAGUAUUUAGAAA | – | 0.00234 ± 0.0025 | 0.00569 ± 0.0027 | 0.00152 ± 0.0037 | – | –
46 | UCCUGGUACAGCUACCAUAGUAUUUUCAAA | – | 0.000363 ± 0.017 | 0.00119 ± 0.0048 | 0.000871 ± 0.0081 | – | –

Source: the supplement of paper PMC10338343
